Test results taken from PMC4534774.
No constants are given. Whether binding was seen depends on the method and setting. Binding seen in cells or lysates may run through a third protein. Some binding calls cover weakened binding; strength is not graded here.

By UniProt entry, the sequences of proteins in these tests, tags left out. Where a name states a change or a piece, a line headed by the entry shows the natural chain unless it says otherwise.
UniProt Q969H0: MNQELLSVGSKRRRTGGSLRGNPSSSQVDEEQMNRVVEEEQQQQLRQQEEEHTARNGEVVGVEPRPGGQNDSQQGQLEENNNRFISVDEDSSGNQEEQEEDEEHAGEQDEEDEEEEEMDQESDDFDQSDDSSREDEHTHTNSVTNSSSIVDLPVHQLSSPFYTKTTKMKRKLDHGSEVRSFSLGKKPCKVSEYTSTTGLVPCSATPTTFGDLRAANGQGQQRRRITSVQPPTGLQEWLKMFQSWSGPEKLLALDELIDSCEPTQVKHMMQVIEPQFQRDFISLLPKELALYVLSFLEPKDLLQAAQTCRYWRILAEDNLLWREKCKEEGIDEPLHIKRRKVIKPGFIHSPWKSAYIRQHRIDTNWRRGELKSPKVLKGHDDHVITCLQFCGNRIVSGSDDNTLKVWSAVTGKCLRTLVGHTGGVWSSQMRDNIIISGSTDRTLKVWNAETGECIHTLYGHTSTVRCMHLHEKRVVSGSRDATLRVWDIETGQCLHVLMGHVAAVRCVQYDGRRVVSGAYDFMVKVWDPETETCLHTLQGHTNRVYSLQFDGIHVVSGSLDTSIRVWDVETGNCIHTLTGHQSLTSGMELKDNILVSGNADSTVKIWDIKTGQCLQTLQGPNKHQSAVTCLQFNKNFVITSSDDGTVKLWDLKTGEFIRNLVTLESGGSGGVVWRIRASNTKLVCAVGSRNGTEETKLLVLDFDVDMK
UniProt P19838: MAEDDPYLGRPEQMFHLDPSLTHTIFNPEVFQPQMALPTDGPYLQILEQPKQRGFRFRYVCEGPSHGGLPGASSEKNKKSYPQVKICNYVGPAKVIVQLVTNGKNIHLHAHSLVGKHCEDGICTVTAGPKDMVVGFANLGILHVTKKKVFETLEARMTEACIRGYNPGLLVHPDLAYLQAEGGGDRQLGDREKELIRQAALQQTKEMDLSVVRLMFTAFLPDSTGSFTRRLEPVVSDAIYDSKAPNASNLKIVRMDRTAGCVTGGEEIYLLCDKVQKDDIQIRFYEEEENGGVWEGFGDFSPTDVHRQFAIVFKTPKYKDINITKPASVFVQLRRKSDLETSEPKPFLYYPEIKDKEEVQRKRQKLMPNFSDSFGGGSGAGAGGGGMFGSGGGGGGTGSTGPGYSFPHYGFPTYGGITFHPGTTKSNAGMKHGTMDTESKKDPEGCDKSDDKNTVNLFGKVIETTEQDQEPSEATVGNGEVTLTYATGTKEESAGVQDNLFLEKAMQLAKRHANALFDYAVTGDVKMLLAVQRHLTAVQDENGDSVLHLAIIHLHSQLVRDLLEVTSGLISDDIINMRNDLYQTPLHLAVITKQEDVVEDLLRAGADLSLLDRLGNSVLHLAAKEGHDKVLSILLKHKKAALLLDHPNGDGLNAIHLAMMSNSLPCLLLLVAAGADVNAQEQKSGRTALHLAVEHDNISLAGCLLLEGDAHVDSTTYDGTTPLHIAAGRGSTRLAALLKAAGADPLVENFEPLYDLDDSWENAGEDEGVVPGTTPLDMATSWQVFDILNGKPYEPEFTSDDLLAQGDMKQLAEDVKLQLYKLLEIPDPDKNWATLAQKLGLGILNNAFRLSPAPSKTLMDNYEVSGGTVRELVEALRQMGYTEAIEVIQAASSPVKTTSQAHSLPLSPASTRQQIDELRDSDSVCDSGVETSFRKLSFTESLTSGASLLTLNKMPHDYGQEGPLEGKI
UniProt Q04206: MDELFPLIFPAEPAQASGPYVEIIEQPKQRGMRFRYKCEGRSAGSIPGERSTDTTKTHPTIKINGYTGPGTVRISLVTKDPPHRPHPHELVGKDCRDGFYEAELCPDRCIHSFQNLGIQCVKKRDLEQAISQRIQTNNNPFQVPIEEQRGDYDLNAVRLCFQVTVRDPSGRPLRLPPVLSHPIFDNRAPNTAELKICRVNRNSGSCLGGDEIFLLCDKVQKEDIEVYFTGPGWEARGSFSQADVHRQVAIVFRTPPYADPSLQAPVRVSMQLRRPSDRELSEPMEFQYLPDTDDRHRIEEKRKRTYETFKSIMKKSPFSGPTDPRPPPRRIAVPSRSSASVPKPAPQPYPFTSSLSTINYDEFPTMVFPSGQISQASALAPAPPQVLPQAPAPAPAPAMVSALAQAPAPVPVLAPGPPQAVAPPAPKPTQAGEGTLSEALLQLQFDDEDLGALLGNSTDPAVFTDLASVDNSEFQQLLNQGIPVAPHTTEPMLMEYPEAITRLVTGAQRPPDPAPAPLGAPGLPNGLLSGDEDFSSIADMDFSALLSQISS

Legend:
[1] = target: FLAG-tagged FBW7 (UniProt Q969H0); experiment: co-IP; anti-Flag (DYDDDK Tag Rabbit) pre-bound to protein A agarose, overnight immunoprecipitation from extracts of HT29 cells transfected with Flag-FBW7, with or without 1,25D; washes with 200 mM NaCl, 1% NP-40; Western blot for NF-κB1 and RELA; controls: control IgG and untransfected cells
[2] = target: T1, vitamin D receptor (human (endogenous in HT29)) (UniProt P11473); experiment: co-IP; anti-VDR (D-6) pre-bound to protein A agarose, overnight immunoprecipitation from extracts of HT29 cells treated with vehicle or 1,25D (100 nM) for 24 h; lysis in 20 mM Tris pH 7.5, 100 mM NaCl, 0.5% NP-40; washes with 200 mM NaCl, 1% NP-40; Western blot for NF-κB subunits
T1 sequence: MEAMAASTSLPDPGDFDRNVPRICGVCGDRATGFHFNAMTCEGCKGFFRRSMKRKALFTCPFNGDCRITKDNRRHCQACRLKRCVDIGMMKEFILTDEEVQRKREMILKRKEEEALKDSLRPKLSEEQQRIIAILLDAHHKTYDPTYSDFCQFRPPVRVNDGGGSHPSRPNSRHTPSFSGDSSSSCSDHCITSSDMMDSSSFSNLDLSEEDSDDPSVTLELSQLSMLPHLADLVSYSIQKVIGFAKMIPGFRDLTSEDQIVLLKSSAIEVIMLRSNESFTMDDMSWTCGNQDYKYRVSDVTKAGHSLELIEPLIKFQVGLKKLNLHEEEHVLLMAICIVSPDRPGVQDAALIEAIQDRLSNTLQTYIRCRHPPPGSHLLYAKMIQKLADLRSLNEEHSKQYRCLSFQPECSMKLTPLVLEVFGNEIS

Row | binding [1] | binding [2] | Substance
1 | binds | – | NF-κB1 p50 (from UniProt P19838 1-433)
2 | – | binds | NF-κB1 p105 (from UniProt P19838 1-968)
3 | binds | binds | RELA (p65) (from UniProt Q04206 1-551)
